Results deposited as PubChem BioAssay AID1259254 (NCATS, 2017)

Aim: 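Gene knock-downs that lead to re-replication, shown by excess G2 DNA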 (primary screen)
Cell system: human HCT116 colorectal cancer cells
Knock-down reagent: single siRNA against human genes
Timing: 3 days
Measurement: 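Nuclei stained with Hoechst and imaged; cell-cycle phase assigned by DNA content; G2 share scaled per plate, non-targeting siRNA 0%, GMNN siRNA 100%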
Direction: G2 robust z-score and G2 cells, % of GMNN control: higher = more G2 cells, more excess DNA replication; raw share of cells in G2: higher = larger share of cells with G2 DNA content
Active means: 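An siRNA counts as active if its G2 robust z-score lies at least 5 MADs above the screen median; here such calls match roughly 38% of GMNN control or more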
In all, the deposit lists about 59,000 reagents; this is an unselected part. About 1,550 of all reagents (2.6%) were called active. 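G2 share is only a proxy for re-replication; each gene was hit by three separate siRNAs, and active genes were retested.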 Raw values vary from plate to plate and are shown uncorrected. Entries without a mark were called inactive. Reagents against one gene are numbered here. No sequences are given here. Not stated in the record: the amount of reagent.

no.	gene	siRNA no.	G2 robust z-score	G2 cells, % of GMNN control	raw share of cells in G2 (%)
1	OVGP1 (oviductal glycoprotein 1)	1	0.736	8.14	5.98
2	OVGP1 (oviductal glycoprotein 1)	2	5.07 (active)	38.6	19.8
3	OVGP1 (oviductal glycoprotein 1)	3	1.09	10.6	9.06
4	POU6F1 (POU class 6 homeobox 1)	1	-0.363	0.417	3.63
5	POU6F1 (POU class 6 homeobox 1)	2	-0.93	-3.58	3.17
6	POU6F1 (POU class 6 homeobox 1)	3	-0.612	-1.34	2.62
7	ZCRB1 (zinc finger CCHC-type and RNA binding motif containing 1)	1	-1.07	-4.56	3.01
8	ZCRB1 (zinc finger CCHC-type and RNA binding motif containing 1)	2	-0.401	0.144	4.53
9	ZCRB1 (zinc finger CCHC-type and RNA binding motif containing 1)	3	-1.77	-9.46	1.28
10	TNN (tenascin N)	1	4.35	33.5	16.4
11	TNN (tenascin N)	2	2.25	18.8	11
12	TNN (tenascin N)	3	-1.25	-5.83	3.23
13	CSMD3 (CUB and Sushi multiple domains 3)	1	0.162	4.11	5.74
14	CSMD3 (CUB and Sushi multiple domains 3)	2	1.87	16.1	8.14
15	CSMD3 (CUB and Sushi multiple domains 3)	3	0.207	4.43	3.11
16	IFT27 (intraflagellar transport 27)	1	0.27	4.87	5.42
17	IFT27 (intraflagellar transport 27)	2	0.915	9.41	9.78
18	IFT27 (intraflagellar transport 27)	3	0.987	9.91	10.4
19	TRIM64 (tripartite motif containing 64)	1	0.839	8.87	9.79
20	TRIM64 (tripartite motif containing 64)	2	-0.644	-1.56	4.3
21	TRIM64 (tripartite motif containing 64)	3	-0.429	-0.0514	4.46
22	ATXN7L1 (ataxin 7 like 1)	1	0.68	7.75	5.67
23	ATXN7L1 (ataxin 7 like 1)	2	-0.939	-3.64	2.26
24	ATXN7L1 (ataxin 7 like 1)	3	-0.657	-1.66	2.56
25	MXRA7 (matrix remodeling associated 7)	1	-0.356	0.464	3.98
26	MXRA7 (matrix remodeling associated 7)	2	-0.213	1.47	4.1
27	MXRA7 (matrix remodeling associated 7)	3	0.942	9.59	8.77
28	ESPNP (espin pseudogene)	1	-0.734	-2.2	2.19
29	ESPNP (espin pseudogene)	2	-0.228	1.36	3.68
30	ESPNP (espin pseudogene)	3	2.03	17.3	9.93
31	RPLP0 (ribosomal protein lateral stalk subunit P0)	1	4.57	35.1	16
32	RPLP0 (ribosomal protein lateral stalk subunit P0)	2	2.81	22.8	14.7
33	RPLP0 (ribosomal protein lateral stalk subunit P0)	3	3.45	27.3	15
34	WRNIP1 (WRN helicase interacting protein 1)	1	2.43	20.1	12.7
35	WRNIP1 (WRN helicase interacting protein 1)	2	-0.325	0.683	6.73
36	WRNIP1 (WRN helicase interacting protein 1)	3	-1.08	-4.63	2.78
37	PRPF4 (pre-mRNA splicing tri-snRNP complex factor PRPF4)	1	0.219	4.51	7.13
38	PRPF4 (pre-mRNA splicing tri-snRNP complex factor PRPF4)	2	0.241	4.66	5.74
39	PRPF4 (pre-mRNA splicing tri-snRNP complex factor PRPF4)	3	-0.122	2.11	4.09
40	FAM43B (family with sequence similarity 43 member B)	1	-1.19	-5.38	1.67
41	FAM43B (family with sequence similarity 43 member B)	2	-0.423	-0.0118	2.95
42	FAM43B (family with sequence similarity 43 member B)	3	1.36	12.6	6.74
43	VWC2 (von Willebrand factor C domain containing 2)	1	0.0164	3.08	4.83
44	VWC2 (von Willebrand factor C domain containing 2)	2	1.84	15.9	10.3
45	VWC2 (von Willebrand factor C domain containing 2)	3	2.23	18.6	12.6
46	LINC01530 (long independently transcribed non-coding RNA 1530)	1	-0.771	-2.45	2.28
47	LINC01530 (long independently transcribed non-coding RNA 1530)	2	-0.129	2.06	4.9
48	LINC01530 (long independently transcribed non-coding RNA 1530)	3	4.15	32.2	14.1
49	TMEM121B (transmembrane protein 121B)	1	4.79	36.7	17.9
50	TMEM121B (transmembrane protein 121B)	2	3.38	26.7	14.7
51	TMEM121B (transmembrane protein 121B)	3	2.04	17.3	8.7
52	SEMA3F (semaphorin 3F)	1	1.57	14	10.9
53	SEMA3F (semaphorin 3F)	2	-0.635	-1.5	3.63
54	SEMA3F (semaphorin 3F)	3	-0.997	-4.05	1.89
55	KPNA3 (karyopherin subunit alpha 3)	1	-0.0496	2.62	6
56	KPNA3 (karyopherin subunit alpha 3)	2	2.39	19.8	13.2
57	KPNA3 (karyopherin subunit alpha 3)	3	-0.385	0.258	4.3
58	TMEM236 (transmembrane protein 236)	1	0.203	4.39	5.5
59	TMEM236 (transmembrane protein 236)	2	0.0264	3.15	4.64
60	TMEM236 (transmembrane protein 236)	3	-0.494	-0.509	3.98
61	SLC16A4	1	0.718	8.02	7.58
62	SLC16A4	2	4.89	37.4	18.4
63	SLC16A4	3	-0.383	0.272	4.66
64	MT4 (metallothionein 4)	1	8.01 (active)	59.4	21.1
65	MT4 (metallothionein 4)	2	1.94	16.6	7.44
66	MT4 (metallothionein 4)	3	0.379	5.63	5.98
67	MTRES1 (mitochondrial transcription rescue factor 1)	1	-0.692	-1.9	3.13
68	MTRES1 (mitochondrial transcription rescue factor 1)	2	0.566	6.95	7.18
69	MTRES1 (mitochondrial transcription rescue factor 1)	3	0.139	3.95	4.5
70	DNAAF3 (dynein axonemal assembly factor 3)	1	-0.521	-0.699	3.75
71	DNAAF3 (dynein axonemal assembly factor 3)	2	0.379	5.63	5.72
72	DNAAF3 (dynein axonemal assembly factor 3)	3	-0.91	-3.43	2.81
73	PGP (phosphoglycolate phosphatase)	1	0.117	3.79	4.51
74	PGP (phosphoglycolate phosphatase)	2	-0.847	-2.99	2.36
75	PGP (phosphoglycolate phosphatase)	3	-0.54	-0.833	3.34
76	CLCN6 (Cl-/H+ antiporter 6)	1	-0.491	-0.484	4.62
77	CLCN6 (Cl-/H+ antiporter 6)	2	1.15	11.1	9.32
78	CLCN6 (Cl-/H+ antiporter 6)	3	-0.823	-2.82	3.27
79	CD53 (CD53 molecule)	1	-0.937	-3.62	3.6
80	CD53 (CD53 molecule)	2	-0.0649	2.51	5.01
81	CD53 (CD53 molecule)	3	4.28	33.1	16.5
82	UPF3A (UPF3A regulator of nonsense mediated mRNA decay)	1	-0.304	0.828	2.92
83	UPF3A (UPF3A regulator of nonsense mediated mRNA decay)	2	-0.319	0.721	4.89
84	UPF3A (UPF3A regulator of nonsense mediated mRNA decay)	3	0.529	6.69	7.61
85	GPR141 (G protein-coupled receptor 141)	1	0.168	4.15	6.41
86	GPR141 (G protein-coupled receptor 141)	2	0.85	8.95	8.1
87	GPR141 (G protein-coupled receptor 141)	3	-0.0311	2.75	5.06
